# Test results as given in PubChem BioAssay AID493014 (National Center for Advancing Translational Sciences (NCATS), 2011).
# This is one part of the list. The main result of the screen is listed elsewhere. These columns were measured beside it and carry no call. Most of these compounds were active or inconclusive in the main read-out, so they are no random draw. Potencies come from curve fits of mixed quality, noted in brackets.
# Test: qHTS Assay to Find Inhibitors of Chronic Active B-Cell Receptor Signaling
# Conditions: ABC-DLBCL IkBa-CBG/CBR reporter, luminescence ratio (green luciferase fused to IkBa over red control in TMD8 lymphoma cells), 4 h
# Method in brief: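 Cell line TMD8 (human ABC DLBCL), stably expressing tet-inducible CBG68-IkBa fusion and CBR; IMDM/0.5% FBS; cpd up to 46 uM; dox induction, 4 h, 37C/5% CO2; dual luminescence; green/red ratio; MG132 control.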
# [1] = measured here: CBR red luminescence, cell number
# [2] = measured here: IkBa-CBG green luminescence
SMILES,AC50 [1],AC50 [2]
Cc1c(C(=O)c2ccccc2)c2ccccc2n1C,"0.0891 µM [rising, full curve, poor fit]",–
COC(=NC1CCCCC1)C(O)c1c[nH]c2ccccc12 (centres undefined),"1.64 µM [falling, full curve]",–
COc1ccc(-c2nn(CCC#N)cc2C(=O)Nc2ccc(C(C)=O)cc2)cc1[N+](=O)[O-],"7.08 µM [rising, partial curve]","11.2 µM [falling, partial curve]"
N#CC(C#N)=NNc1ccc(-n2ccc(C(F)(F)F)n2)cc1,"2.82 µM [falling, full curve]",–
Cc1ccc(C(=O)c2cc(Br)ccc2N)cc1,"10 µM [rising, partial curve]",–
O=C(NCCc1c[nH]c2ccccc12)c1cc2ccccc2oc1=O,"3.16 µM [falling, full curve]",–
CCOC(=O)CCP(=O)(O)C(O)c1ccccc1 (centres undefined),"6.51 µM [falling, single point]",–
CCOc1ccc(Nc2nc(NCC3CCCO3)c3ccccc3n2)cc1 (centres undefined),"11.2 µM [falling, partial curve, poor fit]",–
COCCOC(=O)c1c(N)n(Cc2ccco2)c2nc3ccccc3nc12,"0.251 µM [falling, full curve, poor fit]",–
CCOc1cc(-c2nc3c(C)cccn3c2NCC2CCCO2)ccc1O (centres undefined),"14.1 µM [falling, single point]",–
CC(C)c1ccc(NC(=O)CSc2nnc(OC(=O)N(C)C)n2C2CC2)cc1,"3.55 µM [falling, full curve]",–
COC(=O)C1=C(c2ccc(F)cc2OCc2ccccc2)C[C@@H]2CC[C@H]1N2C(=O)NCc1ccc([N+](=O)[O-])cc1,"25.9 µM [falling, single point]",–
CC(=O)Nc1ccc2c(c1)CC1(C(=O)N(C)C(=O)N(C)C1=O)C1CCCN21 (centres undefined),"2.51 µM [rising, full curve, poor fit]",–
N/C(=N\NC(=O)Nc1ccc(Cl)cc1)c1ccccn1,"8.91 µM [falling, partial curve, poor fit]",–
CCOP(=O)(OCC)c1nc(-c2ccc(OC)cc2)oc1N1CCOCC1,"3.16 µM [rising, full curve, poor fit]",–
Clc1ccc(COC(Cn2ccnc2)c2ccc(Cl)cc2Cl)c(Cl)c1 (centres undefined),"14.1 µM [falling, partial curve, poor fit]","29.1 µM [falling, single point]"
COC(=O)C1=C(c2ccc3ccccc3c2)C[C@@H]2CC[C@H]1N2C(=O)NC1Cc2ccccc2C1,"4.61 µM [falling, partial curve]",–

# 2 entries picked at random from the list so far, as already listed:
SMILES,AC50 [1],AC50 [2]
Cc1ccc(C(=O)c2cc(Br)ccc2N)cc1,"10 µM [rising, partial curve]",–
COc1ccc(-c2nn(CCC#N)cc2C(=O)Nc2ccc(C(C)=O)cc2)cc1[N+](=O)[O-],"7.08 µM [rising, partial curve]","11.2 µM [falling, partial curve]"
